In the supplement of paper PMC3741180, “A Novel High Throughput Biochemical Assay to Evaluate the HuR Protein-RNA Complex Formation” (PLoS ONE, 2013):
This is one part of the list. This data set is noisy: repeats of one test often differ as much as different tests do.

Protein sequences, listed by entry. Tags and fused reporters are not part of them.
UniProt Q15717, whole entry: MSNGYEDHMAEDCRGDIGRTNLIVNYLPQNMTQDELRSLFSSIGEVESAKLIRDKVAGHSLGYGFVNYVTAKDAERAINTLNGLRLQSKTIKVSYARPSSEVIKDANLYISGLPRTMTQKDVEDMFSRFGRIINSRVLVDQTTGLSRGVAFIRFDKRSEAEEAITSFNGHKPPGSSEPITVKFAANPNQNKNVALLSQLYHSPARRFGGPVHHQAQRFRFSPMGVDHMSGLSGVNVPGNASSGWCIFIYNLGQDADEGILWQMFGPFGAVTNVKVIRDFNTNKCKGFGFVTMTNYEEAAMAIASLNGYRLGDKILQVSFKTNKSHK

molecular target: HuR (ELAVL1) - TNFalpha ARE RNA complex (UniProt Q15717); assay: AlphaScreen HuR-RNA complex signal Z-score relative to positive (Bi-TNF, DMSO) controls (Z-score (SD units of positive control)); higher = more complex signal; settings: screen stage: primary screen; compound concentration: 25 nM

Row | SMILES | AlphaScreen HuR-RNA complex signal Z-score
1 | C[C@H]1C(=O)CC[C@@H]2[C@]1(C)CC[C@H]1[C@@]2(C)CC[C@@]2(C)[C@@H]3CC(C)(C)CC[C@]3(C)CC[C@]12C | 2.73
2 | OC(CCN1CCCCC1)(c1ccccc1)c1ccccc1 | 2.28
3 | O=C1c2cccc(O)c2C(=O)c2c(O)cccc21 | 0.315
4 | CCOC(N)=O | 0.553
5 | CCCCCCCCCCCC[C@@H](C(=O)O)[C@H](C)C(=O)O | 2.42
6 | O=C(O)c1cc(=O)c2ccccc2[nH]1 | 0.654
7 | O=C(O)CCC(=O)c1ccc(-c2ccccc2)cc1 | 0.62
8 | C[C@H]1[C@H](C)CC[C@]2(C(=O)O)CC[C@]3(C)C(=CC[C@@H]4[C@@]5(C)C[C@@H](O)[C@H](O)[C@@](C)(CO)[C@@H]5[C@H](O)C[C@]43C)[C@H]12 | 1.44
9 | CN1CCN2c3ccccc3Cc3ccccc3C2C1 (centres undefined) | 3.29
10 | N[C@@H](Cc1ccc(O)c(O)c1)C(=O)O | 2.63
11 | CCC(C)C(NC)C(=O)O (centres undefined) | 1.78
12 | Cc1nc2sccn2c(=O)c1CCN1CCC(=C(c2ccc(F)cc2)c2ccc(F)cc2)CC1 | 0.764
13 | CO[C@H]1C[C@H](O[C@@H]2/C(C)=C/C[C@@H]3C[C@@H](C[C@]4(CC[C@H](C)[C@@H](C5CCCCC5)O4)O3)OC(=O)[C@@H]3C=C(C)/C(=N/O)[C@H]4OC/C(=C\C=C\[C@@H]2C)[C@]43O)O[C@@H](C)[C@@H]1O | 1.15
14 | O=C1c2c(O)ccc(O)c2C(=O)c2c(NCCNCCO)ccc(NCCNCCO)c21 | -2.01
15 | COc1cc(O)cc(OC)c1OC | 1.37
16 | O=C(NC(Cc1cc(=O)[nH]c2ccccc12)C(=O)O)c1ccc(Cl)cc1 (centres undefined) | -0.249
17 | CC(C)(C)NC[C@H](O)COc1cccc2c1CCCC2=O | -2.51
18 | C[N+](C)(C)CCOC(N)=O | 0.31
19 | COC(=O)C[C@H]1C2(C)CC34OC5(C)O[C@@]6([C@H](OC)C(OC(=O)C(C)C)[C@]7(C)C(/C(=C(/OC)C(C)C)C(=O)O[C@H]7c7ccoc7)[C@@]6(O5)[C@H](OC)[C@@]3(OC)C2OC(C)=O)[C@]14C (some centres undefined) | 0.271
20 | COC(=O)[C@H]1[C@H]2C[C@H]3c4[nH]c5cc(OC)ccc5c4CCN3C[C@H]2C[C@@H](OC(=O)c2cc(OC)c(OC)c(OC)c2)[C@@H]1OC | 2.15
21 | CC1=CCc2c(cc3oc(C)cc(=O)c3c2O)OC1 | 2
22 | CC1(C)O[C@@H]2C[C@H]3[C@@H]4C[C@H](F)C5=CC(=O)CC[C@]5(C)[C@H]4[C@@H](O)C[C@]3(C)[C@]2(C(=O)CO)O1 | 3.96
23 | CCC(=O)OCC(=O)[C@@]1(OC(=O)CC)[C@@H](C)C[C@H]2[C@@H]3CCC4=CC(=O)C=C[C@]4(C)[C@@]3(F)[C@@H](O)C[C@@]21C | 1.28

Row | SMILES | AlphaScreen HuR-RNA complex signal Z-score
24 | CC1(C)CC2C1CCC1(C)OC1CCC2(C)O (centres undefined) | 2.51
25 | O[n+]1ccccc1S.O[n+]1ccccc1S.[Zn+2] | -3.13
26 | NNC(=O)c1ccncc1 | -0.15
27 | CCN1CCCC1CNC(=O)c1cc(S(N)(=O)=O)ccc1OC (centres undefined) | 1.28
28 | O=C(O)c1cc2cc(F)ccc2[nH]1 | 4.62
29 | O=C(O)c1cccnc1 | -1.82
30 | CCCCc1oc2ccccc2c1C(=O)c1cc(I)c(OCCN(CC)CC)c(I)c1 | 4.5
31 | Cc1cccc(N(C)C(=S)Oc2ccc3ccccc3c2)c1 | -0.736
32 | Nc1ccc(S(=O)(=O)O)cc1.Nc1ccc(S(=O)(=O)O)cc1.[Zn] | 0.493
33 | C#C[C@]1(O)CC[C@H]2[C@@H]3CCC4=Cc5oncc5C[C@]4(C)[C@H]3CC[C@@]21C | -4.76
34 | O=C(Nc1ccc([N+](=O)[O-])cc1Cl)c1cc(Cl)ccc1O | 0.578
35 | CCOc1ccc(Cc2nccc3cc(OCC)c(OCC)cc23)cc1OCC | 2.58
36 | CC12CC3CC(C)(C1)CC(N)(C3)C2 | 0.412
37 | CC(C)=CCc1c(O)cc2oc(C)cc(=O)c2c1O | 2.4
38 | COc1ccc(-c2cc(=O)c3c(OC)c(OC)c(OC)c(OC)c3o2)cc1 | 0.835
39 | CSCCC(N)C(=O)NC(CC(C)C)C(=O)NC(Cc1ccccc1)C(=O)O (centres undefined) | 0.887
40 | CCC[C@@H]1C[C@@H](C(=O)N[C@@H]([C@H]2O[C@H](SC)[C@H](O)[C@@H](O)[C@H]2O)[C@@H](C)O)N(C)C1 | 3.46
41 | C=C1C(N)CC2CC1C2(C)C (stereo not drawn) [3-AMINO-beta-PINENE] | 2.48
42 | CN1CCCN=C1/C=C/c1cccs1 | 7.1
43 | COc1ccc(-c2cc(=O)c3c(OC)c(OC)c(OC)c(OC)c3o2)cc1OC | 1.34
44 | CCCCOc1ccc(C(=O)CCN2CCCCC2)cc1 | -2.84
45 | COc1cccc(O)c1O | 0.803
46 | C=C1C(=O)O[C@H]2[C@H]1CC/C(C)=C/CC[C@@]1(C)O[C@@H]21 | 1.46

Reformatted: results already given

| Row | SMILES | AlphaScreen HuR-RNA complex signal Z-score |
| --- | --- | --- |
| 29 | O=C(O)c1cccnc1 | -1.82 |
| 30 | CCCCc1oc2ccccc2c1C(=O)c1cc(I)c(OCCN(CC)CC)c(I)c1 | 4.5 |

Remaining list, next part:

Row | SMILES | AlphaScreen HuR-RNA complex signal Z-score
47 | COc1ccc(CCC(=O)c2c(O)cc(O[C@@H]3O[C@H](CO)[C@@H](O)[C@H](O)[C@H]3O[C@@H]3O[C@@H](C)[C@H](O)[C@@H](O)[C@H]3O)cc2O)cc1O | 1.52
48 | CC(C)(C)CC(C)(C)c1ccc(OCCOCC[N+](C)(C)Cc2ccccc2)cc1 | 0.366
49 | CC(C)(C)NC(=O)[C@H]1CC[C@H]2[C@@H]3CC[C@H]4NC(=O)C=C[C@]4(C)[C@H]3CC[C@]12C | 2.35
50 | C=CC1=C(C)/C(=C/c2[nH]c(Cc3[nH]c(/C=C4\NC(=O)C(C)=C4C=C)c(C)c3CCC(=O)O)c(CCC(=O)O)c2C)NC1=O | 1.49
51 | Nc1nc(N)c2nc(-c3ccccc3)c(N)nc2n1 | -0.891
52 | C=C1CC[C@H](O)C/C1=C/C=C1\CCC[C@]2(C)[C@@H]([C@H](C)/C=C/[C@H](C)C(C)C)CC[C@@H]12 | 1.15
53 | CC(C)=CCCC1(C)C=Cc2c(O)c3c(c(CC=C(C)C)c2O1)OC12C(=CCCC1C(C)(C)O[C@@]2(C/C=C(\C)C(=O)O)C(=O)O)C3=O (some centres undefined) | 1.19
54 | CC1=C(/C=C/C(C)=C/C=C/C(C)=C/C=C/C=C(C)/C=C/C=C(C)/C=C/C(=O)[C@]2(C)C[C@@H](O)CC2(C)C)C(C)(C)C[C@H](O)C1 | 1.13
55 | C[C@H]1[C@H]2CC[C@H]3[C@@H]4CC=C5C[C@@H](N(C)C)CC[C@]5(C)[C@H]4CC[C@]23CN1C | 0.922
56 | C[N+](C)(C)C[C@H](O)CC(=O)[O-] | 0.81
57 | CC(C)=CCC[C@@H](C)[C@@H]1CC[C@]2(C)C3=C(CC[C@@]12C)[C@@]1(C)CC[C@H](O)C(C)(C)[C@@H]1CC3 | -3.12
58 | CC(C)NCC(O)COc1cccc2[nH]ccc12 (centres undefined) | 1.04
59 | OC(CCN1CCCC1)(c1ccccc1)C1CCCCC1 (centres undefined) | 7.17
60 | CC(=O)/C(=C\c1ccccc1)CC(=O)O | 1.88
61 | CC(CN(C)C)CN1c2ccccc2CCc2ccccc21 (centres undefined) | 1.05
62 | COC(=O)[C@@]1(C)CCC[C@]2(C)c3ccc(O)c(C(C)C)c3CCC12 (some centres undefined) | 0.744
63 | O=C(O)CCCCCCCC(O)C(O)CCCCCCO (centres undefined) | 0.743
64 | CN(Cc1cc(Br)cc(Br)c1N)C1CCCCC1 | 1.41
65 | C[C@H](CS)C(=O)N1CCC[C@H]1C(=O)O | -0.272
66 | CC1(C)O[C@@H]2C[C@H]3[C@@H]4C[C@H](F)C5=CC(=O)C=C[C@]5(C)[C@H]4[C@@H](O)C[C@]3(C)[C@]2(C(=O)CO)O1 | 1.46
67 | CC(C)c1c(O)ccc2c1CCC1[C@@](C)(C=O)CCC[C@]21C (some centres undefined) | 0.658
68 | C/C=C(\C)C(=O)O[C@@H]1c2c(ccc3ccc(=O)oc23)OC(C)(C)[C@@H]1OC(C)=O | 0.698
69 | CC(C)CCC[C@@H](C)[C@H]1CC[C@H]2[C@@H]3C[C@@H](O)[C@@]4(O)C[C@@H](O)CC[C@]4(C)[C@H]3CC[C@]12C [CHOLESTAN-3beta,5alpha,6beta-TRIOL] | 2.91

Row | SMILES | AlphaScreen HuR-RNA complex signal Z-score
70 | C[C@]12CCC(=O)C=C1CC[C@@H]1[C@@H]2[C@@H](O)C[C@@]2(C)[C@H]1CC[C@]2(O)C(=O)COP(=O)(O)O | -1.79
71 | CC(=O)OCC(=O)[C@@]1(O)CC[C@H]2[C@@H]3CCC4=CC(=O)C=C[C@]4(C)[C@H]3[C@@H](O)C[C@@]21C | 3.93
72 | COc1ccc(Cl)cc1C(=O)NCCc1ccc(S(=O)(=O)NC(=O)NC2CCCCC2)cc1 | 2.86
73 | CC(C)=CCC1=C(O)C(=O)c2ccccc2C1=O | 2.02
74 | CCCCCCNC(=O)n1cc(F)c(=O)[nH]c1=O | 2.53
75 | NCCC(=O)N[C@@H](Cc1c[nH]cn1)C(=O)O | 1.74
76 | CN(C(=O)CN(CCO)CC(=O)N(C)C(C)(C)Cc1ccccc1)C(C)(C)Cc1ccccc1 | 0.346
77 | CC1(C)O[C@@H]2C[C@H]3[C@@H]4C[C@H](F)C5=CC(=O)C=C[C@]5(C)[C@@]4(F)[C@@H](O)C[C@]3(C)[C@]2(C(=O)CO)O1 | -1.32
78 | CC(C)=CCc1c2c(c3occ(-c4ccc(O)c(O)c4)c(=O)c3c1O)C=CC(C)(C)O2 | 0.875
79 | COc1cc(NS(=O)(=O)c2ccc(N)cc2)ncn1 | 1.66
80 | Cc1cc(C)nc(NS(=O)(=O)c2ccc(N)cc2)n1 | 15.1
81 | O=C(O)C1=CC(=C(c2ccc(O)c(C(=O)O)c2)c2ccc(O)c(C(=O)O)c2)C=CC1=O | 1.76
82 | C[C@@H]1C/C=C/C=C/C=C/C=C/[C@H](O[C@@H]2O[C@H](C)[C@@H](O)[C@H](N)[C@@H]2O)C[C@@H]2O[C@](O)(C[C@@H](O)C[C@H]3O[C@@H]3/C=C/C(=O)O1)C[C@H](O)[C@H]2C(=O)O | 0.9
83 | NC[C@H]1O[C@H](O[C@H]2[C@H](O)[C@@H](O[C@H]3O[C@H](CO)[C@@H](O)[C@H](N)[C@H]3O)[C@H](N)C[C@@H]2N)[C@H](N)C[C@@H]1O | 15.1
84 | CCOC(=O)Nc1nc2ccccc2[nH]1 | 1.38
85 | COc1ccc(-c2oc3cc(OC)c(OC)c(OC)c3c(=O)c2OC)cc1OC | 2.42
86 | Cc1cc(O)c2c(c1O)C(=O)c1c(O)cc(C)c(O)c1C2=O | 2.11
87 | COc1cc(OC)c2ccc(=O)oc2c1 | 0.152
88 | CCCCC1C(=O)N(c2ccccc2)N(c2ccc(O)cc2)C1=O (centres undefined) | 0.0088
89 | O=C(O)c1cc(=O)c(O)c2c(O)c(O)c(O)cc2c1 | 2.82

4 compounds from above, sorted by length of the SMILES, falling.
Row | SMILES | AlphaScreen HuR-RNA complex signal Z-score
82 | C[C@@H]1C/C=C/C=C/C=C/C=C/[C@H](O[C@@H]2O[C@H](C)[C@@H](O)[C@H](N)[C@@H]2O)C[C@@H]2O[C@](O)(C[C@@H](O)C[C@H]3O[C@@H]3/C=C/C(=O)O1)C[C@H](O)[C@H]2C(=O)O | 0.9
83 | NC[C@H]1O[C@H](O[C@H]2[C@H](O)[C@@H](O[C@H]3O[C@H](CO)[C@@H](O)[C@H](N)[C@H]3O)[C@H](N)C[C@@H]2N)[C@H](N)C[C@@H]1O | 15.1
80 | Cc1cc(C)nc(NS(=O)(=O)c2ccc(N)cc2)n1 | 15.1
87 | COc1cc(OC)c2ccc(=O)oc2c1 | 0.152
